This note sets out measurements from the supplement of paper PMC4604168 (melanoma cell lines).

Structures are written as SMILES. The list shows a part of the results. Many values rest on one well or one pass, so single values are uncertain.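 The apoptosis fraction was the count of cleaved-PARP antibody-stained nuclei relative to all DNA-stained nuclei, imaged in 1,536-well plates. Screening doses were set so most cells survived, and baseline and induced cleaved-PARP levels vary greatly across cell lines.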

The experiment relates to WM451Lu. The experiment can be described thus: cleaved PARP positive nuclei fraction relative to DMSO control; melanoma cells; higher = more apoptosis. The conditions noted are these: library dose: low library concentration; 72 h.
Turning to `Cn1sc(=O)n(Cc2ccccc2)c1=O` + CNC(=O)c1cc(Oc2ccc(NC(=O)Nc3ccc(Cl)c(C(F)(F)F)c3)cc2)ccn1 [sorafenib] (first compound 0.4 µM, partner dose 0.4 µM), the “cleaved PARP positive nuclei fraction” value was found to be 45.1%.
In the case of `NC(=O)c1ccc(N(C(N)=O)c2c(F)cccc2F)nc1-c1ccc(F)cc1F` + CC(C)C[C@H](NC(=O)[C@H](Cc1ccccc1)NC(=O)c1cnccn1)B(O)O [Bortezomib] (first compound 0.4 µM, partner dose 0.001 µM) it was 44.1%; in that of `NC(=O)c1ccc(N(C(N)=O)c2c(F)cccc2F)nc1-c1ccc(F)cc1F` + C[C@]1(O)C[C@@H](c2nc(-c3ccc4ccc(-c5ccccc5)nc4c3)c3c(N)nccn32)C1 [OSI906] (first compound 0.4 µM, partner dose 0.4 µM), 43.2%.
In the case of `CS(=O)(=O)c1ccc(C(=O)Nc2ccc(Cl)c(-c3ccccn3)c2)c(Cl)c1` [vismodegib] + COCC[n+]1c2c(n(Cc3cnccn3)c1C)C(=O)c1ccccc1C2=O [YM155] (first compound 1 µM, partner dose 0.0004 µM) it was 110%; in that of `Cn1sc(=O)n(Cc2ccccc2)c1=O` + Cn1cncc1[C@@](N)(c1ccc(Cl)cc1)c1ccc2c(c1)c(-c1cccc(Cl)c1)cc(=O)n2C [tipifarnib] (first compound 0.4 µM, partner dose 0.01 µM), 101%; in that of `CCN(CC)CCNC(=O)c1c(C)[nH]c(/C=C2\C(=O)Nc3ccc(F)cc32)c1C` [sunitinib] + CC(C)(C)c1cnc(CSc2cnc(NC(=O)C3CCNCC3)s2)o1 [SNS-032] (first compound 0.4 µM, partner dose 0.01 µM), 156%.
